Several values for one entry are separate records, joined by “and”; a condition that tells them apart may be missing. Identical values can stand only once. About 13,000 (3.2%) of roughly 400,000 compounds were called active. This list was built around the results that the source calls inconclusive (neither active nor inactive); the mix of calls is not that of the screen. Calls follow the shape of the dose curve; as a rule, active = well fitted cell-killing curve with a large enough effect; inconclusive = small, poorly fitted or top-dose-only effect, or effect the other way; inactive = flat fitted curve, though single readings scatter. Potencies of inconclusive entries are doubtful fits and often do not repeat.
Assay: qHTS assay for MDR1-selective chemotherapeutics: Primary screen using the drug-selected MDR subline cells KB-V1; also: nearly all actives have a fitted effect of over 60% in size
Conditions: KB-V1 MDR cells viability, CellTiter-Glo, 72 h; activity change, negative = cytotoxicity: at 46.1 µM (top of the series)
Method in brief: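 Cells of the MDR subline KB-V1 are plated, dosed with compound at multiple concentrations, and incubated 72 h at 37 degrees C; CellTiter-Glo is then added and luminescence read after 10 min.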
With `CC(=O)N1CCc2c(sc3c2c(=O)n(-c2ccc(C)cc2)c(=O)n3CC(=O)Nc2ccccc2)C1` the Potency was “inactive”. With `Cc1cccc2c1NC(=O)/C2=C\C(=O)c1cccs1` the Potency was inconclusive: 29.1 µM [cytotoxic, partial curve, poor fit]. For `COc1ccc(/C=N/NC(=S)Nc2cc(C(F)(F)F)ccc2Cl)cc1`, the Potency was “inactive”. With `O=C(NCCc1ccc(Cl)cc1)c1ccc(CS(=O)(=O)Cc2ccccc2F)o1` the Potency was inconclusive: 29.1 µM [cytotoxic, single point]. For `OCC[C@@H]1C[C@H](O)[C@@H](O)[C@@]2(OCCCc3cc(Cl)ccc32)O1`, the Potency was “inactive”. With `COc1ccc(CCC(=O)Nc2ccc(Cl)c(S(=O)(=O)N3CCOCC3)c2)cc1OC` the Potency was active: 16.4 µM. In the case of `CC1(C)C2([N+](=O)[O-])CN(CCO)CC1([N+](=O)[O-])CN(CCO)C2`, the Potency is reported as “inactive”. In the case of `Cc1ccccc1C(=O)Nc1cc(S(=O)(=O)N2CCCCC2)ccc1N1CCN(C)CC1`, the Potency is reported as inconclusive: 16.4 µM [cytotoxic, partial curve, poor fit]. With `Cc1ncc(C(=O)O)c(C(=O)O)c1N` the Potency was “inactive”. With `N#Cc1cccc(C(=O)C(=O)N2CCC(c3ccccc3)CC2)c1` the Potency was inconclusive: 20.6 µM [cytotoxic, partial curve, poor fit]. In the case of `CN(C)c1ccc(NS(=O)(=O)c2cc(Cl)ccc2Cl)cc1`, the Potency is reported as inconclusive: 29.1 µM [cytotoxic, single point]. For `CCc1nnc(NS(=O)(=O)c2ccc(N/C=C\C(=O)c3ccc(C)cc3)cc2)s1`, the Potency was inconclusive: 18.4 µM [cytotoxic, single point]. With `COc1nc(Nc2ccc(C(C)C)cc2)nc(OC)n1` the Potency was inconclusive: 20.6 µM [cytotoxic, single point]. For `Cc1ccc(-c2cc(C(=O)NCc3ccccc3)c3c(-c4ccc(C)cc4)[nH]nc3n2)cc1`, the Potency was “inactive”. For `O=C(Nc1ccc(C(F)(F)F)cc1)c1cc(S(=O)(=O)NCC2COc3ccccc3O2)ccc1F` (centres undefined), the Potency was inconclusive: 18.4 µM [cytotoxic, single point]. With `CCC(C)[C@H](NC(=O)[C@@H]1Cc2c([nH]c3ccccc23)C2c3ccccc3C(=O)N21)C(=O)N1CCC[C@@H]1C(=O)O` (some centres undefined) the Potency was “inactive”. In the case of `CC1CCCN(C(=O)c2ccc(NC(=O)CC3SC(N4CCCC4)=NC3=O)cc2)C1` (centres undefined), the Potency is reported as inconclusive: 32.6 µM [rising, single point]. With `CCN(C(=O)CSc1nnc(Nc2ccccc2C)s1)C1CCS(=O)(=O)C1` (centres undefined) the Potency was inconclusive: 20.6 µM [rising, single point]. With `O=C(NCC1CCCN(C(=O)Cc2ccccc2Cl)C1)c1ccc(F)cc1` (centres undefined) the Potency was inconclusive: 0.231 µM [cytotoxic, full curve]. In the case of `COc1ccc2nc3c(nc2c1)CCCC3`, the Potency is reported as “inactive”. For `Cc1ccc(Cl)cc1N1CCN(CCNC(=O)Nc2ccc(Cl)cc2)CC1`, the Potency was “inactive”. For `Cc1cc(F)ccc1S(=O)(=O)N1CCCOC1CNC(=O)C(=O)NCCc1ccco1` (centres undefined), the Potency was inconclusive: 20.6 µM [cytotoxic, partial curve, poor fit]. With `COc1ccc(CN(CC(O)COCc2ccccc2)S(=O)(=O)c2ccccc2Br)cc1` (centres undefined) the Potency was “inactive”. For `COc1ccc(CNC(=O)c2ccc(SC)cc2OC)cc1`, the Potency was inconclusive: 20.6 µM [cytotoxic, single point]. With `CCOc1ccc(/C(O)=C2/C(=O)C(=O)N(c3nc(C)c(C)s3)C2c2ccco2)cc1` (centres undefined) the Potency was inconclusive: 18.4 µM [cytotoxic, single point]. For `CN1CCN(CCCN2c3ccccc3Sc3ccc(C(F)(F)F)cc32)CC1`, the Potency was inconclusive: 18.4 µM [cytotoxic, partial curve] and active: 13 µM and active: 20.6 µM. With `O=C(CN1CCN(c2ncc(C(F)(F)F)cc2Cl)CC1)NCCNc1ncc(C(F)(F)F)cc1Cl` the Potency was inconclusive: 20.6 µM [cytotoxic, single point]. For `Cc1ccc(S(=O)(=O)NCCC(=O)OCC(=O)N2CCCC2=O)cc1`, the Potency was inconclusive: 23.1 µM [rising, single point]. In the case of `CC(C)(C)C(=O)C(Cc1ccccc1)n1cncn1` (centres undefined), the Potency is reported as inconclusive: 20.6 µM [cytotoxic, partial curve, poor fit]. With `O=C(C1CCN(S(=O)(=O)c2cccc3nonc23)CC1)N1CCN(c2ccccc2)CC1` the Potency was “inactive”. In the case of `Cc1nn(-c2ccccc2)c(-c2ccccc2[N+](=O)[O-])c1CC#N`, the Potency is reported as “inactive”. In the case of `CCN(C(=O)c1cccc(S(=O)(=O)N(C)C)c1)C12CC3CC(CC(C3)C1)C2`, the Potency is reported as inconclusive: 20.6 µM [cytotoxic, single point]. For `Cc1n[nH]c(=O)n1-c1cccc(C(F)(F)F)c1`, the Potency was “inactive”. In the case of `CCSc1nnc(NC(NC(C)=O)(C(F)(F)F)C(F)(F)F)s1`, the Potency is reported as inconclusive: 10.3 µM [rising, partial curve]. For `CCOc1ccccc1Nc1nc2ccc(C)cc2n2cnnc12`, the Potency was inconclusive: 1.03 µM [rising, full curve]. With `CCCOC(=O)c1cccc(Nc2nc(-c3cccnc3)nc3ccccc23)c1` the Potency was inconclusive: 29.1 µM [cytotoxic, single point]. With `Cc1cnc(NC(=O)C2CC(=O)N(c3cccc(Cl)c3)C2)s1` (centres undefined) the Potency was active: 20.6 µM. With `O=C(CCCc1ccccn1)c1cccc2ccccc12` the Potency was “inactive”. With `C/C(=N\Nc1nc2ccccc2[nH]1)c1ccc(C)o1` the Potency was inconclusive: 18.4 µM [cytotoxic, partial curve, poor fit]. In the case of `CC(=O)c1ccc(NS(=O)(=O)c2ccc([N+](=O)[O-])cc2)cc1`, the activity change, negative = cytotoxicity is reported as inconclusive: 7.34%. With `COc1ccc(CCC(=O)N2CCN(S(=O)(=O)c3ccc(OC(F)(F)F)cc3)CC2)cc1` the Potency was active: 16.4 µM. In the case of `O=[N+]([O-])c1cccc(/C=N/NC2CCS(=O)(=O)C2)c1` (centres undefined), the Potency is reported as inconclusive: 29.1 µM [rising, single point]. With `Cc1ccsc1/C=N/NC(=O)c1cc(-c2ccncc2)nc2ccccc12` the Potency was inconclusive: 1.84 µM [cytotoxic, full curve, poor fit]. For `O=C(COc1ccc([N+](=O)[O-])cc1Cl)N1CCc2ccccc21`, the activity change, negative = cytotoxicity was inconclusive: -13.2%. For `CC1CCN(C(=O)Cn2cnc3c(cnn3C(C)(C)C)c2=O)CC1`, the Potency was inconclusive: 29.1 µM [cytotoxic, single point]. For `CCOc1ccc(-c2nc(SC(C(C)=O)C(=O)N(C)C)c3c(=O)n(C)c(=O)n(C)c3n2)cc1` (centres undefined), the activity change, negative = cytotoxicity was inconclusive: 17.9%. For `CCC(CC)c1nnc(NC(=O)c2cccc(S(=O)(=O)N3CCc4ccccc43)c2)s1`, the Potency was active: 14.6 µM. In the case of `O=C(COC(=O)C12CC3CC(CC(Br)(C3)C1)C2)NCc1ccco1`, the Potency is reported as “inactive”. For `COc1ccc(-c2nn(C)c3sc(C(=O)Nc4cccc(F)c4)cc23)cc1OC`, the Potency was inconclusive: 32.6 µM [cytotoxic, single point]. In the case of `COc1ccc(C(=O)N/N=C/C(Br)=C/c2ccccc2)cc1`, the Potency is reported as inconclusive: 20.6 µM [cytotoxic, single point]. In the case of `Cc1nnc(SCC(=O)Nc2cc(-c3cc(C)c(C)cc3C)nn2-c2ccccc2)s1`, the Potency is reported as inconclusive: 4.61 µM [cytotoxic, partial curve, poor fit]. With `Cc1ccccc1NC(=O)c1ccc(CN2CCc3ccccc3C2)cc1` the Potency was inconclusive: 16.4 µM [cytotoxic, partial curve]. In the case of `CC(C)(C)NC(=O)C(c1cccs1)N(CC1CCCO1)C(=O)c1ccc(-c2ccccc2)[nH]1` (centres undefined), the Potency is reported as inconclusive: 18.4 µM [cytotoxic, partial curve, poor fit]. In the case of `Cc1ccc(Nc2nc(N)nc(N)c2N=O)cc1Cl`, the Potency is reported as “inactive”. In the case of `CC(C)c1ccc(/C=C(\c2nc3ccccc3[nH]2)S(=O)(=O)c2ccccc2)cc1`, the Potency is reported as active: 2.59 µM. With `CO[C@H]1/C=C\O[C@@]2(C)Oc3c(C)c(O)c4c(O)c(c(C=NN5CCN(C6CCCC6)CC5)c(O)c4c3C2=O)NC(=O)C(C)=CC=C[C@H](C)[C@H](O)[C@@H](C)[C@@H](O)[C@@H](C)[C@H](OC(C)=O)[C@H]1C` the Potency was “inactive”. For `CC1=CC(Cc2ccccc2)N(C)C(C(N)=O)C1` (centres undefined), the Potency was “inactive”. In the case of `Cc1cccc(NC(=S)Nc2cccc(C(F)(F)F)c2)n1`, the Potency is reported as inconclusive: 29.1 µM [cytotoxic, single point]. In the case of `COc1ccc(OC)c(-n2c(SCC(C)=O)nnc2-c2cccc(S(=O)(=O)N(C)C)c2)c1`, the Potency is reported as “inactive”. For `CC(NC(=O)CCn1ccc2cc(S(=O)(=O)N3CCCC3)ccc21)c1ccccc1` (centres undefined), the Potency was inconclusive: 18.4 µM [cytotoxic, single point]. In the case of `CCCNC(=O)COC(=O)c1cc(-c2ccc(OC)cc2)nc2ccccc12`, the Potency is reported as inconclusive: 20.6 µM [cytotoxic, single point]. With `COC(=O)c1sccc1NC(=O)c1c(C)cc(=O)oc1C` the Potency was “inactive”. With `COC(=O)CCC(=O)Nc1cccc([N+](=O)[O-])c1` the Potency was “inactive”. With `COc1cccc(C=Nc2ccccc2C(=O)Nc2nccs2)c1OC` the Potency was inconclusive: 20.6 µM [cytotoxic, single point]. For `O=S(=O)(NCCc1cn2ccccc2n1)c1ccc(-c2ccccc2)cc1`, the Potency was “inactive”. With `CCN(CC)S(=O)(=O)c1ccc2c(c1)N(CC(=O)N1CCN(c3cccc(C(F)(F)F)c3)CC1)C(=O)CO2` the Potency was “inactive”. With `CCN(CC)CCN(C(=O)c1ccco1)c1nc2ccc(Cl)cc2s1` the Potency was “inactive”. For `O=C(NCCOc1ccccc1F)c1cccc(S(=O)(=O)N2CCN(c3ccccc3)CC2)c1`, the Potency was active: 13 µM. In the case of `NC1(C#Cc2ccc3oc(=O)c(-n4cc(C5(O)CCCCC5)nn4)cc3c2)CCCCC1`, the Potency is reported as inconclusive: 11.6 µM [rising, single point].

Reference: PubChem BioAssay AID1347076 (National Center for Advancing Translational Sciences (NCATS), 2019)
% is scaled to controls: 0 for no effect and ±100 for the full control effect; potency is read from the fitted curve at half-maximal effect.
